Test results reported in paper PMC7015432.

Protein sequences, listed by entry. Tags and fused reporters are not part of them. Lines headed by an entry give the natural chain unless they say otherwise; changes in a name come on top.
UniProt Q9ULP9: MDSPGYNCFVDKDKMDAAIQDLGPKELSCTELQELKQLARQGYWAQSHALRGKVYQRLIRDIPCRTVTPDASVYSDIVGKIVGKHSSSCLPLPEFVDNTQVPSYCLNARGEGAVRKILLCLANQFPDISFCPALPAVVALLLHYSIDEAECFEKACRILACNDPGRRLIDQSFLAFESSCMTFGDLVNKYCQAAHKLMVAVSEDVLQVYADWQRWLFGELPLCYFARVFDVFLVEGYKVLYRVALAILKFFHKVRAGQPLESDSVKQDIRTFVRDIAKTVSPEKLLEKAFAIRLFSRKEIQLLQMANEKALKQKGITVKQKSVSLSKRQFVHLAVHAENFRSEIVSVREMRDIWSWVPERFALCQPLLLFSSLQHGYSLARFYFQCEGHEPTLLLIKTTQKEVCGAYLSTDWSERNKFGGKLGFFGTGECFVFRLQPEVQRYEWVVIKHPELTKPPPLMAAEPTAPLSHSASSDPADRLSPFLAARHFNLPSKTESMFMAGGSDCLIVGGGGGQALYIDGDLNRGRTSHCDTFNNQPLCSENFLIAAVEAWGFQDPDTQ
UniProt P62330: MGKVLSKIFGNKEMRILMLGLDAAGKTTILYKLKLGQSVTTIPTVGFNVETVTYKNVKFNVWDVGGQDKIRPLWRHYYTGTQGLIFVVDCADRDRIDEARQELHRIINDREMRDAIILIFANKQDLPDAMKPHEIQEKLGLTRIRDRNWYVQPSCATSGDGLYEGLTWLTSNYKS
UniProt Q15286: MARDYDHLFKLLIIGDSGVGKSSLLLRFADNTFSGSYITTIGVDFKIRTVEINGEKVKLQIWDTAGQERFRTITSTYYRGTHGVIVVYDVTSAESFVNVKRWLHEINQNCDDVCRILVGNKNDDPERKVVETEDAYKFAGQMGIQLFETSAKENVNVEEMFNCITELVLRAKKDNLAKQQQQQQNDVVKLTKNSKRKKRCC

Target: FLAG-tagged wild-type TBC1D24 (human) (UniProt Q9ULP9)
Assay: co-IP; HEK293T cells co-transfected, lysed 36 hr later in 50 mM Tris pH 7.5, 150 mM NaCl, 0.1% SDS, 1% Nonidet P40; 1 mg lysate with ANTI-FLAG M2 Affinity Gel at 4 °C for 2 hr; FLAG-TBC1D24 is the bait

binding	Substance
binds	HA-tagged ARF6 T27N (from UniProt P62330 1-175)
no binding	Myc-tagged Rab35 Q67L (from UniProt Q15286 1-201)

Continued, substance first:

Substance	binding
Myc-tagged Rab35 S22N (from UniProt Q15286 1-201)	no binding
HA-tagged wild-type ARF6 (from UniProt P62330 1-175)	binds
Myc-tagged wild-type Rab35 (from UniProt Q15286 1-201)	no binding
HA-tagged ARF6 Q67L (from UniProt P62330 1-175)	binds

No constants are given. Whether binding was seen depends on the method and setting. Binding seen in cells or lysates may run through a third protein. Binding can be weak; no strength is given.
